± gives the standard deviation of the averaged measurements. The list shows a part of the results.
Compound: Nc1nc2c(ncn2[C@@H]2O[C@H](COP(=O)(O)OP(=O)(O)OP(=O)(O)O)[C@@H](O)[C@H]2O)c(=O)[nH]1 [guanosine triphosphate]
Experiment: NP40-soluble protein abundance relative to vehicle (solubility fold change) (ratio); higher = more soluble protein in presence of GTP
How it was run: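 Data come from three independent experiments in which Dounce-homogenised Jurkat crude lysate was treated at eight concentrations from 0.1 to 10 mM. Treatment ran 10 min at room temperature and then 3 min at 37 °C, after which 0.8% NP40 and benzonase were added for 60 min at 4 °C before ultracentrifugation. The supernatant underwent TMT labelling and LC-MS/MS, and vsn-normalised intensities were expressed as fold change against the detergent-processed vehicle in each replicate.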

The chains behind the UniProt entries cited, without tags or fusion partners. Where a name states a change or a piece, a line headed by the entry shows the natural chain unless it says otherwise.
UniProt Q86UP2: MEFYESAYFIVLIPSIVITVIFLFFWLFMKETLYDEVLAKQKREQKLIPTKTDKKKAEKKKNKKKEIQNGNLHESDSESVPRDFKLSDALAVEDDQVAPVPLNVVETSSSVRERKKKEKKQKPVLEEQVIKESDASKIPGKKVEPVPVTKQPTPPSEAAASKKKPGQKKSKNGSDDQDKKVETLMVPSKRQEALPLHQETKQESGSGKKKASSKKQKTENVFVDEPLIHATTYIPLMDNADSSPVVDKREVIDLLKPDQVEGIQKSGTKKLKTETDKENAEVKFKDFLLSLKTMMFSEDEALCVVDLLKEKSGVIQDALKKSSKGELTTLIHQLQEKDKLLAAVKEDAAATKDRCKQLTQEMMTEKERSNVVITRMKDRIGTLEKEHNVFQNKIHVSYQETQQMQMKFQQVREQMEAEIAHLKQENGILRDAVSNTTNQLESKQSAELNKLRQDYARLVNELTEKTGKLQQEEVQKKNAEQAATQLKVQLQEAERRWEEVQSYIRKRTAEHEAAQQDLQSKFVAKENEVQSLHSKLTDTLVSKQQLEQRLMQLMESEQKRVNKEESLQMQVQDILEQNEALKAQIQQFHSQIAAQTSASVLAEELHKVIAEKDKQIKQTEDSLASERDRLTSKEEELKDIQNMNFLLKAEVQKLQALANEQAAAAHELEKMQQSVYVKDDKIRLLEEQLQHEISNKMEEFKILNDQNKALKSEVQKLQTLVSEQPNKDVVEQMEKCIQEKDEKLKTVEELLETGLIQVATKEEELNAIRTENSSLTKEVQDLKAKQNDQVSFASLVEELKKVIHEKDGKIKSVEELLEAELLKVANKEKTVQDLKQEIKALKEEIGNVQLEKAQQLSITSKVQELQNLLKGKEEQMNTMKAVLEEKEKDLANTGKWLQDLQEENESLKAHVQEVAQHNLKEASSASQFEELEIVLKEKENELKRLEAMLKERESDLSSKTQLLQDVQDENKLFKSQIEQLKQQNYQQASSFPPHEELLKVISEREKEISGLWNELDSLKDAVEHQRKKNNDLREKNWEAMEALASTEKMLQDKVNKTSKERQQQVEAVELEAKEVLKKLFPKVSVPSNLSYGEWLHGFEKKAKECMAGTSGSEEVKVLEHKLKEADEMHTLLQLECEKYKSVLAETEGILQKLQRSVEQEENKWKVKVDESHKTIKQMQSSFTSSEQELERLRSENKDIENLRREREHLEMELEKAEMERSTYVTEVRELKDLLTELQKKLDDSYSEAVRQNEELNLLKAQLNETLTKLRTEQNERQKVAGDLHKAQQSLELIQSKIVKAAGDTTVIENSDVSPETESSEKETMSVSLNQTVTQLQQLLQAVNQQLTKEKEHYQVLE
UniProt P40855: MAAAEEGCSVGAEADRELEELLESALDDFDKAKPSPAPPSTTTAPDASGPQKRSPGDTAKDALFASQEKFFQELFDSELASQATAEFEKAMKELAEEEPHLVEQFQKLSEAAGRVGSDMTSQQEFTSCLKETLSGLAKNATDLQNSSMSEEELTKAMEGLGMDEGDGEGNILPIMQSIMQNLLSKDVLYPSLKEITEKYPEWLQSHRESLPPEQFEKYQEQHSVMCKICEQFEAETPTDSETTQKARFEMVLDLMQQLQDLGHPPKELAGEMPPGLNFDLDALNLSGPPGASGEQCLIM
UniProt Q12768: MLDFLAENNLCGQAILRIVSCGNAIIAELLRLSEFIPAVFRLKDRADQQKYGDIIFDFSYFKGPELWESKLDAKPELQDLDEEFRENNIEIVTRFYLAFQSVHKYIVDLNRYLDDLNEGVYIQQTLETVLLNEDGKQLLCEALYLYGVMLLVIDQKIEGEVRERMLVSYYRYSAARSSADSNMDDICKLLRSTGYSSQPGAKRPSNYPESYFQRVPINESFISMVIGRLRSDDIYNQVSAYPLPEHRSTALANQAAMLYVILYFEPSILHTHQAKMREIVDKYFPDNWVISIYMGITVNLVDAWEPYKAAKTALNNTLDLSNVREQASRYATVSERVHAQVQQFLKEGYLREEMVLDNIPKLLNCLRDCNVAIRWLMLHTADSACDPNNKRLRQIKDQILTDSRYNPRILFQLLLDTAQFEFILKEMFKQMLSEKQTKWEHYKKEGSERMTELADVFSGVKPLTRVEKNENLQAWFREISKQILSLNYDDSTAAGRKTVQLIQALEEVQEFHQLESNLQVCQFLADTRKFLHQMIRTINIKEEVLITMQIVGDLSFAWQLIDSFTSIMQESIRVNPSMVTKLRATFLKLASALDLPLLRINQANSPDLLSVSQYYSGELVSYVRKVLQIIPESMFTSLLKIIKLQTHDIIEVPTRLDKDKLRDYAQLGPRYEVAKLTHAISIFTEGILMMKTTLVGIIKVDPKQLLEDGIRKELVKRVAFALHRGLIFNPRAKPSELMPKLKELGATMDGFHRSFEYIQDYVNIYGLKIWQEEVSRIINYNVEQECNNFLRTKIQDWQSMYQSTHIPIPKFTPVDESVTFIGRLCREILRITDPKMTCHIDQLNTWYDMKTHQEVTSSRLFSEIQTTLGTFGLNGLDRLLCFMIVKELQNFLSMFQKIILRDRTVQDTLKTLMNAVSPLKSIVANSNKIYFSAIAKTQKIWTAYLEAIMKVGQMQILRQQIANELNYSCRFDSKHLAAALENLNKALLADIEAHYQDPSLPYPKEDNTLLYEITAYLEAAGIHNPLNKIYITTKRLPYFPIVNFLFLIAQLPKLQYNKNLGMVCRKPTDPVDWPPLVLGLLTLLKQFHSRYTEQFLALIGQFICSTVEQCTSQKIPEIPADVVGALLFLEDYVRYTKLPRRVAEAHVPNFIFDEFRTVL
UniProt Q92540: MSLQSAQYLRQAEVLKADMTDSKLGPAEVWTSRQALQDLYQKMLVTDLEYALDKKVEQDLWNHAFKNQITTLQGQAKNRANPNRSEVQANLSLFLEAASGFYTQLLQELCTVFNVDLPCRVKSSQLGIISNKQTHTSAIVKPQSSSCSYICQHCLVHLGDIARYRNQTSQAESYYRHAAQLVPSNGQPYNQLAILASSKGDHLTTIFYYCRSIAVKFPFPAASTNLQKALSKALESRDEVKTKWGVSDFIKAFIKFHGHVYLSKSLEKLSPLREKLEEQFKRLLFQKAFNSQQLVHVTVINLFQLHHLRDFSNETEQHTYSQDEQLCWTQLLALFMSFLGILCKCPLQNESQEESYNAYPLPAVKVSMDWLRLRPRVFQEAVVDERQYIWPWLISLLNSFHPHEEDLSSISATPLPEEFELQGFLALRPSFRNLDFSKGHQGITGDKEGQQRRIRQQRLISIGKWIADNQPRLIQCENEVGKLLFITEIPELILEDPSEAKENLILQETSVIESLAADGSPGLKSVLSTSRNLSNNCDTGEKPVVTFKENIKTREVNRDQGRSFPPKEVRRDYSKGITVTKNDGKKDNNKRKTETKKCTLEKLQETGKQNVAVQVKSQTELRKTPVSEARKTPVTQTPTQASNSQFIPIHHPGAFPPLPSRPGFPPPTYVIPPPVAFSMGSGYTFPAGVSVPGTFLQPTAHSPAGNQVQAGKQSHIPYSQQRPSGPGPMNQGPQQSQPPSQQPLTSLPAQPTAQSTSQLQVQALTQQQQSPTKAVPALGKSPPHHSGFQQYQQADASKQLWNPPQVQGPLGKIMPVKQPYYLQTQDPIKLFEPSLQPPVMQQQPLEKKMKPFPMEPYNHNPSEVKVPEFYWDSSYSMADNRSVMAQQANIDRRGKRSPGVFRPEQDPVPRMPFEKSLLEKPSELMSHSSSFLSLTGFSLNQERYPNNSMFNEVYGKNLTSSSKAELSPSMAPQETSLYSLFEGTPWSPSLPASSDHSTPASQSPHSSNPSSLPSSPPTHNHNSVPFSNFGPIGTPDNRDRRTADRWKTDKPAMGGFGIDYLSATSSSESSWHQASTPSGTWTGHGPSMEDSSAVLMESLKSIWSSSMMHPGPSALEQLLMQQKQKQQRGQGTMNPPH
UniProt O00214: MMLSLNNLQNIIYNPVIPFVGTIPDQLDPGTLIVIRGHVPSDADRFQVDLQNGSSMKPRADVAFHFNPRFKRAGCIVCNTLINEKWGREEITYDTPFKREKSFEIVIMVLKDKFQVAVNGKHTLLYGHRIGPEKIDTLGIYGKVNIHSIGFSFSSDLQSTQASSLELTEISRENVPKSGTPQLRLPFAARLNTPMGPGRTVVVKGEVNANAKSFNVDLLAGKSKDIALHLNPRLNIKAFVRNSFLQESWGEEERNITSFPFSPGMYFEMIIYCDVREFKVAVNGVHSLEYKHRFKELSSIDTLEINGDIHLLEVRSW
UniProt P52566: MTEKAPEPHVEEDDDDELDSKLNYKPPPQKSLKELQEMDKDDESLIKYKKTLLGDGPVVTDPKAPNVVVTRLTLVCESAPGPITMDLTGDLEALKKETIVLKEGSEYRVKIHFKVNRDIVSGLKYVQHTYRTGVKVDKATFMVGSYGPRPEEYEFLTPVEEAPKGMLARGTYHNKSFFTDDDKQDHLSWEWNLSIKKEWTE
UniProt Q99590: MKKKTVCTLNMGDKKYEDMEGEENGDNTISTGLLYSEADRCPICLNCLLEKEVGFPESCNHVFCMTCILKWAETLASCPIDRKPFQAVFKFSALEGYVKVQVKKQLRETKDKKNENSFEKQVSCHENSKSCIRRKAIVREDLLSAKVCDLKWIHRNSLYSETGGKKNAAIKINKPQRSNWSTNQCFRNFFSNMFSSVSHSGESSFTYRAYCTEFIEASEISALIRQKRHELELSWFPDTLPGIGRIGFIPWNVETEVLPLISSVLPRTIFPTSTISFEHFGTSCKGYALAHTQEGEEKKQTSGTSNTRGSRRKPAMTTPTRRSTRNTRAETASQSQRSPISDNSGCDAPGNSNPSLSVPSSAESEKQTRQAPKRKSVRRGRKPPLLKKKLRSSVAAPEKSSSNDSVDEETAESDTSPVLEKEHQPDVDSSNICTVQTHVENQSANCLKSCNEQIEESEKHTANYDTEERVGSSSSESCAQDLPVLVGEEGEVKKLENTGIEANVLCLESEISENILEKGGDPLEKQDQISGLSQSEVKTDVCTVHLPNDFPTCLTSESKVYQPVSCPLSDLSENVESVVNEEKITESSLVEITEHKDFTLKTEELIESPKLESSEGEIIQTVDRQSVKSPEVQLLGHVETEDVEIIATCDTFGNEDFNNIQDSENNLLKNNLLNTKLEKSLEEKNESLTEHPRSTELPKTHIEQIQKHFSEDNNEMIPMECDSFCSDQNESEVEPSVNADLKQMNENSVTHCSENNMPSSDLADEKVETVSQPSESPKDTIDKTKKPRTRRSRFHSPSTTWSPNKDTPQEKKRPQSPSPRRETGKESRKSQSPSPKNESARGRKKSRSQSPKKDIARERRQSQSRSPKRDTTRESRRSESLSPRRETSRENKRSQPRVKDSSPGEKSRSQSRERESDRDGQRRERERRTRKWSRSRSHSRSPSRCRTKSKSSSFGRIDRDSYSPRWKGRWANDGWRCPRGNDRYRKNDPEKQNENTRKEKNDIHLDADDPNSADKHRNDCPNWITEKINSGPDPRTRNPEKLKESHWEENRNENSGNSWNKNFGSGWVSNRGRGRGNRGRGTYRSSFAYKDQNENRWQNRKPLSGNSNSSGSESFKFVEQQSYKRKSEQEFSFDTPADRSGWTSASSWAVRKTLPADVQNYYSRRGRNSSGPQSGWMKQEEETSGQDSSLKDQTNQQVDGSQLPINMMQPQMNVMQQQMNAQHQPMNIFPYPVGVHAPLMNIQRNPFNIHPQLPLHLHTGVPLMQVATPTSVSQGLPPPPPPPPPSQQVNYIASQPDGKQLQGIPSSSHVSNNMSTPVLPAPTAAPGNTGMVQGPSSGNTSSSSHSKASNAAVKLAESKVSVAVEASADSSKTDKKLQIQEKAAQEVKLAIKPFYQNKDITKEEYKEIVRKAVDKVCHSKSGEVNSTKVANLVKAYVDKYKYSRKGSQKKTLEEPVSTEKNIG
UniProt Q04323: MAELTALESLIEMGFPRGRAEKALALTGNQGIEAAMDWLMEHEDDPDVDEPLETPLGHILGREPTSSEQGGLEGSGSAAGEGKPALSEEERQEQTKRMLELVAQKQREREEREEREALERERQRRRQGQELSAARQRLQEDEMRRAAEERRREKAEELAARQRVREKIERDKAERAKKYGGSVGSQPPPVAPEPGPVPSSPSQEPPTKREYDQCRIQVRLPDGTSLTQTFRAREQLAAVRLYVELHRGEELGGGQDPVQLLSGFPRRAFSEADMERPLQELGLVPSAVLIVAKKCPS
UniProt Q8IUX1: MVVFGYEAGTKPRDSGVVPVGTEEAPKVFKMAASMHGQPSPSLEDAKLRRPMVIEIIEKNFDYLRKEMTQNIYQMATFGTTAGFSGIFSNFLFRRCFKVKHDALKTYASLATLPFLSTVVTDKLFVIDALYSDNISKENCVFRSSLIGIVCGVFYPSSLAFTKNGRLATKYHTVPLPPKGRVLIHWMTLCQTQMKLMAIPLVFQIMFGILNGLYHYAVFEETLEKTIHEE

Target | NP40-soluble protein abundance (concentration: 0.1mM) | NP40-soluble protein abundance (concentration: 0.5mM) | NP40-soluble protein abundance (concentration: 1mM) | NP40-soluble protein abundance (concentration: 2mM) | NP40-soluble protein abundance (concentration: 4mM) | NP40-soluble protein abundance (concentration: 6mM) | NP40-soluble protein abundance (concentration: 8mM) | NP40-soluble protein abundance (concentration: 10mM)
E7ETD6 and related entries (UniProt Q12830) | 1 ± 0.025 | 1.04 ± 0.033 | 1.11 ± 0.0085 | 1.14 ± 0.024 | 1.18 ± 0.046 | 1.18 ± 0.036 | 1.27 ± 0.15 | 1.28 ± 0.14
E9PHM2 and related entries (UniProt Q15031) | 1.04 ± 0.018 | 1.04 ± 0.045 | 0.918 ± 0.0099 | 0.94 ± 0.037 | 0.905 ± 0.01 | 0.916 ± 0.022 | 0.884 ± 0.042 | 0.852 ± 0.06
E7ETA6 and related entries (UniProt Q15154) | 0.976 ± 0.04 | 0.968 ± 0.046 | 1.01 ± 0.041 | 1.02 ± 0.052 | 1.04 ± 0.025 | 1.1 ± 0.063 | 1.13 ± 0.029 | 1.15 ± 0.044
G3V5P0 and related entries (UniProt Q86UP2) | 0.928 ± 0.055 | 0.922 ± 0.08 | 0.99 ± 0.048 | 0.956 ± 0.068 | 0.974 ± 0.054 | 0.98 ± 0.056 | 0.9931 ± 0.0024 | 1.02 ± 0.081
G3V3G9 (UniProt P40855) | 1.04 ± 0.033 | 1.01 ± 0.039 | 0.955 ± 0.024 | 0.969 ± 0.035 | 1.02 ± 0.06 | 0.976 ± 0.099 | 1 ± 0.026 | 0.971 ± 0.042
E7EQI7 and related entries (UniProt Q12768) | 1.07 ± 0.063 | 1.03 ± 0.036 | 0.989 ± 0.037 | 1.02 ± 0.052 | 1.02 ± 0.059 | 1.03 ± 0.038 | 0.949 ± 0.066 | 0.941 ± 0.018
E9PD50 and related entries (UniProt Q92540) | 0.952 ± 0.035 | 0.96 ± 0.067 | 0.962 ± 0.084 | 0.991 ± 0.088 | 0.951 ± 0.065 | 0.987 ± 0.091 | 0.982 ± 0.08 | 0.986 ± 0.053
E9PF58 and related entries (UniProt Q92747) | 1.05 ± 0.08 | 1.1 ± 0.17 | 0.937 ± 0.084 | 0.991 ± 0.14 | 0.994 ± 0.13 | 0.964 ± 0.13 | 0.96 ± 0.042 | 0.903 ± 0.11
G3V4X1 and related entries (UniProt P62191) | 0.989 ± 0.011 | 1.04 ± 0.054 | 1.04 ± 0.063 | 1.06 ± 0.09 | 1.07 ± 0.11 | 1.09 ± 0.13 | 1.1 ± 0.15 | 1.04 ± 0.15
F8W7C6 and related entries (UniProt P27635) | 0.997 ± 0.043 | 1 ± 0.083 | 1.03 ± 0.11 | 0.918 ± 0.1 | 0.886 ± 0.16 | 0.86 ± 0.12 | 0.787 ± 0.11 | 0.901 ± 0.13
F8WDV0 and related entries (UniProt Q9UI26) | 1.21 ± 0.17 | 1.05 ± 0.1 | 0.989 ± 0.12 | 1.11 ± 0.15 | 1.01 ± 0.15 | 1.02 ± 0.078 | 0.984 ± 0.077 | 0.975 ± 0.1
F8W0Q9 and related entries (UniProt Q8NEY8) | 1.01 ± 0.022 | 1.08 ± 0.019 | 1.19 ± 0.058 | 1.28 ± 0.096 | 1.41 ± 0.18 | 1.45 ± 0.2 | 1.63 ± 0.22 | 1.77 ± 0.42
E9PEL3 and related entries (UniProt P61513) | 1.03 ± 0.041 | 0.979 ± 0.07 | 0.975 ± 0.12 | 0.96 ± 0.13 | 0.889 ± 0.19 | 0.858 ± 0.19 | 0.574 ± 0.05 | 0.843 ± 0.14
F5GZZ0 and related entries (UniProt Q6NS38) | 0.99515 ± 0.00044 | 0.947 ± 0.015 | 0.914 ± 0.024 | 0.941 ± 0.1 | 1.03 ± 0.033 | 1.016 ± 0.0074 | 0.985 ± 0.04 | 0.991 ± 0.021
G3V542 and related entries (UniProt Q13509) | 0.911 ± 0.025 | 1 ± 0.024 | 1 ± 0.099 | 1.02 ± 0.096 | 1.06 ± 0.025 | 0.919 ± 0.031 | 0.934 ± 0.073 | 0.9579 ± 0.0074
F6V2D4 and related entries (UniProt O00214) | 1.06 ± 0.11 | 1.05 ± 0.069 | 0.949 ± 0.086 | 0.972 ± 0.13 | 0.96 ± 0.03 | 0.905 ± 0.065 | 0.96 ± 0.05 | 0.923 ± 0.1
F5H2R5 and related entries (UniProt P52566) | 0.962 ± 0.025 | 0.979 ± 0.026 | 0.943 ± 0.06 | 0.886 ± 0.063 | 0.864 ± 0.088 | 0.884 ± 0.089 | 0.87 ± 0.067 | 0.839 ± 0.085
F8VXG7 and related entries (UniProt Q99590) | 1.02 ± 0.064 | 1.13 ± 0.03 | 1.22 ± 0.025 | 1.26 ± 0.058 | 1.3 ± 0.042 | 1.31 ± 0.031 | 1.4 ± 0.1 | 1.42 ± 0.12
E9PJ81 and related entries (UniProt Q04323) | 0.939 ± 0.021 | 0.906 ± 0.055 | 0.972 ± 0.014 | 0.953 ± 0.043 | 0.927 ± 0.04 | 0.924 ± 0.04 | 0.894 ± 0.073 | 0.985 ± 0.074
E9PKP7 and related entries (UniProt P17480) | 1.02 ± 0.025 | 1 ± 0.036 | 1.08 ± 0.025 | 1.2 ± 0.079 | 1.31 ± 0.074 | 1.45 ± 0.066 | 1.5 ± 0.053 | 1.87 ± 0.13
F8VS36 and related entries (UniProt Q92994) | 1.09 ± 0.11 | 1.01 ± 0.058 | 1.06 ± 0.096 | 1.03 ± 0.078 | 0.999 ± 0.058 | 1.03 ± 0.02 | 1.03 ± 0.12 | 1 ± 0.12
E9PJQ6 and related entries (UniProt Q8IUX1) | 1.06 ± 0.085 | 1.07 ± 0.11 | 1.05 ± 0.11 | 1.03 ± 0.13 | 1.06 ± 0.058 | 1.04 ± 0.083 | 1.11 ± 0.15 | 1.05 ± 0.11
F8VWS0 and related entries (UniProt P05388) | 0.877 ± 0.088 | 0.897 ± 0.048 | 0.883 ± 0.076 | 0.846 ± 0.11 | 0.811 ± 0.13 | 0.776 ± 0.13 | 0.677 ± 0.096 | 0.788 ± 0.13
F5H2X7 and related entries (UniProt Q9ULV3) | 1.03 ± 0.059 | 1.01 ± 0.097 | 1.03 ± 0.047 | 0.981 ± 0.1 | 1 ± 0.06 | 0.984 ± 0.08 | 1.03 ± 0.041 | 1.01 ± 0.052
G3V4E1 and related entries (UniProt P23743) | 1.12 ± 0.084 | 1.14 ± 0.11 | 1.08 ± 0.096 | 1.07 ± 0.13 | 1.1 ± 0.11 | 1.06 ± 0.074 | 1.03 ± 0.07 | 0.979 ± 0.088

Looked up above:
NP40-soluble protein abundance (concentration: 0.1mM) with F5H2X7 and related entries (UniProt Q9ULV3) is entered as 1.03 ± 0.059
NP40-soluble protein abundance (concentration: 0.1mM) with G3V4E1 and related entries (UniProt P23743) is entered as 1.12 ± 0.084
